{"source": "paper PMC7819943", "about": "“Rice protein-binding microarrays: a tool to detect cis-acting elements near promoter regions in rice”", "note": "This is one part of the list.", "data": [{"target": "T1, OsSMF1 (Oryza sativa, UniProt Q6ZLB0 1-436)", "T1 sequence": "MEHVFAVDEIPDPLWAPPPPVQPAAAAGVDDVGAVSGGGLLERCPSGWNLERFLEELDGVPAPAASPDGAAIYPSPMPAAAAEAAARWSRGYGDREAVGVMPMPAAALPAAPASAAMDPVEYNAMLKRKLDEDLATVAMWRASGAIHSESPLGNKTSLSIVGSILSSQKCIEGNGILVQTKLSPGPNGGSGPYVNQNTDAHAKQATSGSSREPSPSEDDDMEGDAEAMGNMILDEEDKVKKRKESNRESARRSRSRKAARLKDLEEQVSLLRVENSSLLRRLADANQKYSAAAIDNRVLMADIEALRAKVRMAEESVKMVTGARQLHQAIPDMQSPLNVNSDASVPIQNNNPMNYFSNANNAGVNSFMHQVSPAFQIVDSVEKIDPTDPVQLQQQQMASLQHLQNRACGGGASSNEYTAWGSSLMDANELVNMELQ", "assay": "protein-binding microarray (RPBM); PBS, 2% BSA, 51.3 ng/ul salmon testes DNA, 50 uM zinc acetate, 200 nM TF, 25 C, 1 h; high values mean tight binding", "conditions": "protein: recombinant; tags: N-terminal polyhistidine and DsRed monomer fusion (pET32a); chain copies: 2; label: CyDye5-dUTP incorporated in the synthesized complementary strand; 3' TTTTT single-stranded linker to array surface; dsDNA, one strand shown", "procedure,_shortened": "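A custom Agilent array was converted to double-stranded form by primer extension with Cy5-dUTP and blocked with 2% BSA. Protein at 200 nM in PBS with 2% BSA, salmon testes DNA and 50 µM zinc acetate was applied for 1 h at 25 °C, followed by washing. The proteins were polyhistidine–DsRed N-terminal fusions of transcription factors, expressed in E. coli BL21-CodonPlus and Ni–NTA-purified. The binding signal is per-feature fluorescence intensity (arbitrary units) from an Axon 4000B scanner.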", "values": [{"sequence": "AATGAATTATACAAAACCAGAACTTTCTGATATTGAATTGCGGAGTCACCTAGTGCAG", "binding signal": "3230 fluorescence intensity (a.u.)"}, {"sequence": "CTAGCTTCGAGAGGCCGAGTTGCTCCACGTGGAGAGAGAGCGGAGTCACCTAGTGCAG", "binding signal": "6570 fluorescence intensity (a.u.)"}, {"sequence": "CCATGTCGGCGCCGCCGCCGTCCCCGTCCCAGTCGCCGCCCGGAGTCACCTAGTGCAG", "binding signal": "3640 fluorescence intensity (a.u.)"}, {"sequence": "ATTGTACTCCTACGTATCGAAGTCATGCGAAACTCATGCACGGAGTCACCTAGTGCAG", "binding signal": "3220 fluorescence intensity (a.u.)"}, {"sequence": "ATTTCCTGCAAGAAGGATGACTGAGTCAACAGGCGACCGGCGGAGTCACCTAGTGCAG", "binding signal": "25600 fluorescence intensity (a.u.)"}, {"sequence": "TAAGTCACAAGTGTTCCCACGTGTAGGCATGTTTCACGCTCGGAGTCACCTAGTGCAG", "binding signal": "5720 fluorescence intensity (a.u.)"}, {"sequence": "CGCCAAATCGTGTGGCGCTGAACTTAGACACCTCAGCGTCCGGAGTCACCTAGTGCAG", "binding signal": "21000 fluorescence intensity (a.u.)"}, {"sequence": "TCTCGCCTCGTCGTCACCACGTCGGCTTCAGCGACATTTCCGGAGTCACCTAGTGCAG", "binding signal": "7340 fluorescence intensity (a.u.)"}, {"sequence": "ATAGATAATAGAAGAACAAAATGACCAGTTGATAAACCCTCGGAGTCACCTAGTGCAG", "binding signal": "3250 fluorescence intensity (a.u.)"}, {"sequence": "CGTGCCGCGTCCGCGTGCGCTCGCAGGACGTGTCCAGGTGCGGAGTCACCTAGTGCAG", "binding signal": "6010 fluorescence intensity (a.u.)"}, {"sequence": "CAAGTCGACTAGAAATTGTAAAATCAAATTAAAATTCTTTCGGAGTCACCTAGTGCAG", "binding signal": "3730 fluorescence intensity (a.u.)"}, {"sequence": "GAAAACGATAGTTTGGTGACGTAAACCTGCGGCTGAGGCCCGGAGTCACCTAGTGCAG", "binding signal": "5050 fluorescence intensity (a.u.)"}, {"sequence": "ATTGGAGTTAGTGGTGGGCTATACTATTAGACGTCCATTGCGGAGTCACCTAGTGCAG", "binding signal": "3270 fluorescence intensity (a.u.)"}, {"sequence": "CTCTCGTCGGTTACATTACAATTTACAGGAGCAAGCAGCTCGGAGTCACCTAGTGCAG", "binding signal": "16300 fluorescence intensity (a.u.)"}, {"sequence": "AAAGATGAGTTGGCCGATTCAGACACCTCCTATGTCCATACGGAGTCACCTAGTGCAG", "binding signal": "4690 fluorescence intensity (a.u.)"}, {"sequence": "ATATGGATGATGGTTTTGTTGATGTGGCATCCTAGTCAGACGGAGTCACCTAGTGCAG", "binding signal": "14000 fluorescence intensity (a.u.)"}, {"sequence": "TTGAATATGAGTGAGTAGGCAATAGGCACTTTTGTTTTGGCGGAGTCACCTAGTGCAG", "binding signal": "4220 fluorescence intensity (a.u.)"}, {"sequence": "TTTGATACTACTGCCTGTTTTACAGATCACCAACTTCCTGCGGAGTCACCTAGTGCAG", "binding signal": "4670 fluorescence intensity (a.u.)"}, {"sequence": "GCAGTATTTGTCACTTTTCCTGACCGACCACTTGCGTTTGCGGAGTCACCTAGTGCAG", "binding signal": "3530 fluorescence intensity (a.u.)"}, {"sequence": "GAAACGACTGCATCCGTCCACGCGTGCGGCTCGTGACGACCGGAGTCACCTAGTGCAG", "binding signal": "5250 fluorescence intensity (a.u.)"}, {"sequence": "CTGAGTAAAATATATGTACTTTCTTTTGCCGAATTACCCTCGGAGTCACCTAGTGCAG", "binding signal": "3220 fluorescence intensity (a.u.)"}, {"sequence": "ACCTCACGCTCGACGGCAACGCCACCGTCATGCCAGATGGCGGAGTCACCTAGTGCAG", "binding signal": "5190 fluorescence intensity (a.u.)"}, {"sequence": "TGCAGTATTGGTGAGTTGTTCTCTTTAACGTCTGAGCTGACGGAGTCACCTAGTGCAG", "binding signal": "4760 fluorescence intensity (a.u.)"}, {"sequence": "TCTCTCCCTTCTTCTTCCGCCACCTCCCTCTCTCTCCCTTCGGAGTCACCTAGTGCAG", "binding signal": "4090 fluorescence intensity (a.u.)"}, {"sequence": "GCTGTTCATTCTGCTGTGTGTTTCGTGGCACAGCACATTTCGGAGTCACCTAGTGCAG", "binding signal": "6090 fluorescence intensity (a.u.)"}, {"sequence": "GAGCCTGCTGTCTTGTTACTGTTAATGATGTTTTAGTTTACGGAGTCACCTAGTGCAG", "binding signal": "3320 fluorescence intensity (a.u.)"}, {"sequence": "GTCACCTAAGTGCCATGTCAACGCCACGTGGAAAGAAGACCGGAGTCACCTAGTGCAG", "binding signal": "25100 fluorescence intensity (a.u.)"}, {"sequence": "TCAAAGATGACCTTATATCGGTGACGAGTCATCCCTGGTACGGAGTCACCTAGTGCAG", "binding signal": "5290 fluorescence intensity (a.u.)"}, {"sequence": "ATTACAGCCATATGCTCAGCGCTGGCATTCATGTATTTTGCGGAGTCACCTAGTGCAG", "binding signal": "4580 fluorescence intensity (a.u.)"}, {"sequence": "ATGGGCCTATCTTCTACTGACAGGTGGGACCGCCCGTGATCGGAGTCACCTAGTGCAG", "binding signal": "4890 fluorescence intensity (a.u.)"}, {"sequence": "GACGGGTTTGTTATTGTGCTAGTGCTAAGGTCAATTGAGTCGGAGTCACCTAGTGCAG", "binding signal": "3160 fluorescence intensity (a.u.)"}, {"sequence": "ACAACACATCATTGACACACAACTATACCAACGTTCTATCCGGAGTCACCTAGTGCAG", "binding signal": "4820 fluorescence intensity (a.u.)"}, {"sequence": "ATATATATATATATATACAGATATACACACACACACACCGCGGAGTCACCTAGTGCAG", "binding signal": "3320 fluorescence intensity (a.u.)"}, {"sequence": "TCTCCTAACTTCTCTCCTCCACCTCATCATCTAATCTTATCGGAGTCACCTAGTGCAG", "binding signal": "4860 fluorescence intensity (a.u.)"}, {"sequence": "CAACAGCAGCAGCTACAACGCGGCATCCATGGCCGCCGCGCGGAGTCACCTAGTGCAG", "binding signal": "53300 fluorescence intensity (a.u.)"}, {"sequence": "CAAGTTGTGACAGTTATACAAGTGTGGTGGATAAATTGTTCGGAGTCACCTAGTGCAG", "binding signal": "3240 fluorescence intensity (a.u.)"}, {"sequence": "TCTAATAGCAATAGATGACTGGTGGTGACGCGTAACGTAGCGGAGTCACCTAGTGCAG", "binding signal": "5550 fluorescence intensity (a.u.)"}, {"sequence": "ATAAAATCCACCGTGTCAATCCCCACGCCACACCAGAGGCCGGAGTCACCTAGTGCAG", "binding signal": "5640 fluorescence intensity (a.u.)"}, {"sequence": "AGACAAACATTGCGTAATGCCTCGGACCTAATATAAAAGTCGGAGTCACCTAGTGCAG", "binding signal": "15800 fluorescence intensity (a.u.)"}, {"sequence": "CCATCTCATCATGCATAGCAGTTATCCATCTATTGCAATCCGGAGTCACCTAGTGCAG", "binding signal": "3780 fluorescence intensity (a.u.)"}, {"sequence": "ATTCAAATGCCACCTAAGCGTCACGTCAACACCACAGATTCGGAGTCACCTAGTGCAG", "binding signal": "10800 fluorescence intensity (a.u.)"}, {"sequence": "GTGCCTGCTCGATCGAGTCGTGGCGGCGGCGGAGTCAACTCGGAGTCACCTAGTGCAG", "binding signal": "3370 fluorescence intensity (a.u.)"}]}]}
